Reference: publication PMC4974071
Results are given in words; binding and its absence hold for the method and conditions named. Binding seen in cells or lysates may run through a third protein. Some results given as binding are weak or reduced against the parent protein; the word gives no strength.

How the values were obtained:
Test in all cases: FRET or BRET; BRET in live HEK293 cells co-transfected with 6 fmol Renilla luciferase fusion (donor) and 6 fmol YFP fusion (acceptor) plasmid, 48 hr, then Enduren 60 uM for 4 hr; mean corrected BRET ratios; nuclear-targeted luciferase or YFP as controls
NONO (human) = target: T1, NONO (human) (UniProt Q15233)
T1 sequence: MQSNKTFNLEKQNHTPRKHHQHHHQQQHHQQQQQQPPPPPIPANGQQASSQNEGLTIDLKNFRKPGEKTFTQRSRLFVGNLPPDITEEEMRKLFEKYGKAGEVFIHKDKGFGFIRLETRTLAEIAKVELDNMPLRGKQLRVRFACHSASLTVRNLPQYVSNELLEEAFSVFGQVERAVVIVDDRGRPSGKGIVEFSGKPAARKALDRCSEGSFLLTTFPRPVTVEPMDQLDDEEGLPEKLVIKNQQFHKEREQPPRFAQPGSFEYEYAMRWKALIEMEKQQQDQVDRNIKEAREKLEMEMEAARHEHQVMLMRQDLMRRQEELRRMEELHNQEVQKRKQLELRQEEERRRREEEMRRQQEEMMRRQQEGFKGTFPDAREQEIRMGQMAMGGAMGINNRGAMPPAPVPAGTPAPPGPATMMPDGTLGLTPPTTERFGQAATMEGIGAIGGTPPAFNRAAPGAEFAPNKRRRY

[1] = target: T2, BCL11A-S (short isoform of BCL11A), wild-type (human) (UniProt Q9H165)
T2 sequence: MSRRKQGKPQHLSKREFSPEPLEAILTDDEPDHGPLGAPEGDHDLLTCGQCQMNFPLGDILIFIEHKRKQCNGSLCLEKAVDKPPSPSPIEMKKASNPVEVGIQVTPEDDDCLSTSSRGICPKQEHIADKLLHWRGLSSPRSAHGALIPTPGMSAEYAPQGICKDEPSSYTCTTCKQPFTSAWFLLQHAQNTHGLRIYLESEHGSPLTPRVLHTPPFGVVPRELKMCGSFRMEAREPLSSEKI

[2] = target: BCL11A-L (long isoform of BCL11A), wild-type (human) (UniProt Q9H165)

Row | binding (NONO (human)) | binding [1] | binding [2] | Substance
1 | binds | binds | binds | BCL11A-L (long isoform of BCL11A), wild-type (from UniProt Q9H165-2 1-773)
2 | binds |  |  | BCL11A-L p.Cys48Phe (from UniProt Q9H165-2 1-773)
3 | binds |  |  | BCL11A-L p.His66Gln (from UniProt Q9H165-2 1-773)
4 | binds |  |  | BCL11A-L p.Thr47Pro (from UniProt Q9H165-2 1-773)
